The full ranking holds about 33,000 sequences; the median of “E-score (-0.5 to 0.5)” is about -8e-05, and the highest 2% start at about 0.23. Some of the results follow.
Target: T1, Nrg2 (UniProt P38082)
T1 sequence: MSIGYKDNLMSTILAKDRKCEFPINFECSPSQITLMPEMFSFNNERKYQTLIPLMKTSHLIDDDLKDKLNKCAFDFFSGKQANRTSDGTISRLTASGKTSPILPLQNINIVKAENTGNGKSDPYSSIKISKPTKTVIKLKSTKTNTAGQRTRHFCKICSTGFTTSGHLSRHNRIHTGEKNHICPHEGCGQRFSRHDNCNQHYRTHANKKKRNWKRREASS
Test: PBM E-score (8-mer binding enrichment) (E-score (-0.5 to 0.5)); higher = stronger / more preferred TF binding
Conditions: protein concentration: 100 nM; construct: GST-full length
Method in brief: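 Universal all-10-mer Agilent arrays, fresh or stripped once, were converted to double-stranded form by primer extension. GST-tagged yeast transcription factors from PURExpress in vitro transcription/translation, full-length or DNA-binding domain only, were applied at about 100-200 nM and detected with fluorescent anti-GST. After masliner normalisation, the Universal PBM Analysis Suite scored each ungapped eight-base word together with its reverse complement by E-score.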

Sequence	PBM E-score
ATAATACC	0.171
GTCTCTCA	-0.0103
CCAGATCA	0.0769
GGGTGCAC	0.101
CCTGGAAC	-0.00717
AGGTCAAC	-0.0898
GCTAGAAC	-0.155
ATCGTCGA	0.00274
CCTGGCCA	0.124
AAGGATGG	-0.186
ATCGACCC	0.132
GGCTGTAC	-0.264
GGGCTGCA	0.0573
GGTAATGA	0.0524
CAAATTAG	0.158
AAATGTTA	-0.0387
AAGAGGGC	-0.0181
ACTGTCCC	0.11
TAGTCGCA	0.0306
CGAATGCG	0.121
CTCAGCCA	0.0142
CACACCCG	-0.0461

Seven entries from above, as comma-separated lines:
Sequence,PBM E-score
ATCGTCGA,0.00274
CCTGGCCA,0.124
AAGGATGG,-0.186
ATCGACCC,0.132
GGCTGTAC,-0.264
GGGCTGCA,0.0573
GGTAATGA,0.0524

Next part.

Sequence	PBM E-score
GCCAAAAC	0.0379
TAATAAAA	0.201
CAGGGCCA	-0.0826
CTGATTTC	0.107
ACGATCCT	-0.0869
AACGCTAT	-0.0353
AGCACGAG	0.00933
GGTATCAA	0.102
ATGTCGCG	0.047
AGGGATCC	0.0843
CGAGAACG	0.058
GCTGACCA	0.108
ACTTGTTC	-0.129
GCGAGACC	-0.0404
AATGAATT	0.147
GAAGAACC	-0.184
CCTCCCGC	0.0411
ACAGGACC	0.00619
GTTGGGGA	0.0557
AGTGGGTA	0.0744
AGACCGAT	-0.0473
CACATGGG	0.0939

Sequence	PBM E-score
AGCATCCC	-0.152
ACTACAAC	0.0872
TATGGGAA	0.0283
AAAAACGA	0.0943
CACGCAGA	0.0609
TCTCCGCA	-0.185
CAGGTACC	-0.179
CCTCCTCG	-0.109
GAACGGGC	-0.242
GAAGCGTC	-0.0163
AGTCTGCG	-0.214
CCCGACAC	-0.178
ATCCCATA	-0.0872
CAAGTTGG	0.225
CATGGTCC	0.0356
ATACTGCG	0.0423
AGTCACAA	0.0698
GCAAGCCC	0.0658
GTATGAGA	0.133
ATAGCAAA	-0.0613
CATGCGGC	-0.119
ATGAGGAA	-0.0003

Sequence	PBM E-score
AAGCGCGG	0.0909
CCAAGCGA	-0.0864
CACTCTCC	0.0146
ACTGGTGA	-0.145
CCCCCCCA	-0.452
GATGCATA	0.113
CCTTAATA	0.19
GGTACAGA	0.0161
CAAGATAG	0.15
GCGATTAC	-0.0166
CATCCTGC	-0.164
CCACTCAC	0.0481
GACCGCGA	0.121
ATTTTTGC	0.051
GCGTGAGA	0.297
ATTGTCGG	0.247
AACCTTTC	-0.0385
CGGAAAAG	-0.0153
AAGAGAGT	-0.186
CCACAACC	0.104
CTAGAGCC	-0.114
AACCAGCA	-0.0198

Sequence	PBM E-score
CTATGCAC	-0.0708
TGAGCCAA	-0.0409
GACACACC	0.0354
GATGCGCC	0.0405
AAGAATTG	0.204
CAACTGGA	0.0171
TAGCCATA	-0.118
ATGGGAGC	-0.0437
ACGCTAGC	-0.277
AGAATTAC	0.0665
CCAGACCA	0.0135
GAATGTCA	-0.0564
CTCACACA	0.104
GCTAGAAA	0.112
CCATCCCA	-0.112
AATGTGTC	0.104
TGACACAA	0.146
CCCTTAGA	0.0891
CGTTCTCA	-0.0327
GGTTCGAC	0.0637
CAACCATC	-0.196

From the supplement of paper PMC3334620
